Record: PubChem BioAssay AID1259425 (University of Nebraska Medical Center, 2018)

- Aim: 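Seek colon cancer weak points whose silencing resembles KSR1 loss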 (primary screen)
- Cell system: HCT116 human colon cancer cells
- Reagents: siRNA pool against human genes, 50 nM siRNA
- Read-out: 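mRNA of six signature genes measured together by branched-DNA assay after 50 nM siRNA pool, blank removed, divided by geometric mean of two housekeeping genes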
- Direction: BNIP3L mRNA: higher = more BNIP3L transcript after knockdown
This is one part, drawn at random, of about 14,000 reagents tested. Not all columns of the deposit are shown. No sequences are given here. Not stated in the record: the time to read-out.

| gene | BNIP3L mRNA, set 1 |
| --- | --- |
| MAP2K6 | 0.209 |
| LINC01587 | 0.0905 |
| CPEB4 | 0.165 |
| LRRN2 | 0.162 |
| ABHD13 | 0.128 |
| ARHGDIG | 0.0911 |
| CHRM5 | 0.0581 |
| KBTBD4 | 0.198 |
| EVC2 | 0.135 |
| ENY2 | 0.23 |
| DCP1A | 0.0526 |
| CARD10 | 0.044 |
| RAB1B | 0.0368 |
| GABARAPL1 | 0.0864 |
| TMBIM4 | 0.169 |
| OR1F1 | 0.177 |
| FAM106A | 0.181 |
| BMP8B | 0.201 |
| BEST2 | 0.0933 |
| AKR1B1 | 0.0463 |
| TRAPPC10 | 0.115 |
| EBP | 0.142 |
| EVA1C | 0.0664 |

In a second layout: entries from further up.
{"gene": "LRRN2", "BNIP3L mRNA, set 1": 0.162}
{"gene": "ABHD13", "BNIP3L mRNA, set 1": 0.128}
{"gene": "ARHGDIG", "BNIP3L mRNA, set 1": 0.0911}
{"gene": "CHRM5", "BNIP3L mRNA, set 1": 0.0581}
{"gene": "KBTBD4", "BNIP3L mRNA, set 1": 0.198}
{"gene": "EVC2", "BNIP3L mRNA, set 1": 0.135}
{"gene": "ENY2", "BNIP3L mRNA, set 1": 0.23}

Next reagents follow:
| gene | BNIP3L mRNA, set 1 |
| --- | --- |
| CLCNKB | 0.0846 |
| PPP4C | 0.0433 |
| L3MBTL2 | 0.187 |
| CDX2 | 0.073 |
| MYF5 | 0.159 |
| STYK1 | 0.0789 |
| NBEAL1 | 0.0835 |
| NINJ1 | 0.155 |
| PMM2 | 0.0831 |
| CHMP1A | 0.0531 |
| ZSCAN31 | 0.0815 |
| CCL3 | 0.0846 |
| GDF1 | 0.112 |
| SLC1A6 | 0.0938 |
| ISG20L2 | 0.136 |
| ORC6 | 0.0971 |
| PDIA4 | 0.0487 |
| KCTD17 | 0.0961 |
| EIF3C | 0.0559 |
| MADD | 0.0868 |
| CCDC170 | 0.117 |
| NECTIN3 | 0.0923 |
| ERGIC2 | 0.0776 |
| LMOD3 | 0.162 |
| MOGAT2 | 0.0827 |
| GJA10 | 0.123 |
| TNK2 | 0.0986 |
| ALDH2 | 0.101 |
| NAT8 | 0.119 |
| UBE2G2 | 0.0679 |
| MTERF3 | 0.073 |
| MSH3 | 0.117 |
| RSPH6A | 0.178 |
| PUF60 | 0.115 |
| PTAFR | 0.188 |
| RXFP3 | 0.0955 |
| CPE | 0.101 |
| GBX2 | 0.19 |
| OBP2B | 0.0527 |
| BRD8 | 0.126 |
